Test results taken from publication doi:10.1101/2021.01.04.425272.
These are yes or no findings as the source states them, for the method shown. In cells and extracts the contact can be indirect. Some results given as binding are weak or reduced against the parent protein; the word gives no strength.

Chains of the proteins cited; added tags and fusions are not shown. Residues count along the entry.
UniProt Q14494, residues 104-772: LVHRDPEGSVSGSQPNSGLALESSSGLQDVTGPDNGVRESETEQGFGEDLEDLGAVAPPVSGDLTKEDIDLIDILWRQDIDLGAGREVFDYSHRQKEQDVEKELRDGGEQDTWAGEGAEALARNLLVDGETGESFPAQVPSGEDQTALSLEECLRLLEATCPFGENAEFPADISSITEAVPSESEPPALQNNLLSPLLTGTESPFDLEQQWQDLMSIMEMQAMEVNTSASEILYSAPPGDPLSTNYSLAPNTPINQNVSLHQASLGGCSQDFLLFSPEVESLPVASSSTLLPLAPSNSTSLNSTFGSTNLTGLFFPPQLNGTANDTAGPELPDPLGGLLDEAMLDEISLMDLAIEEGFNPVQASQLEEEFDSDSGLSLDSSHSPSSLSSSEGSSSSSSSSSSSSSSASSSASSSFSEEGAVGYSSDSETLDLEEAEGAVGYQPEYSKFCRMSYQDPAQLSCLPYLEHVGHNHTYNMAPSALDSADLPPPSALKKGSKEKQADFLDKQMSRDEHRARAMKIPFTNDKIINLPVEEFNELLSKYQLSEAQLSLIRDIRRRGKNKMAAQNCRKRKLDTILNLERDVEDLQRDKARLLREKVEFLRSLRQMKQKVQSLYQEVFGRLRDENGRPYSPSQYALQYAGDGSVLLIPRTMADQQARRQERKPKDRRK
UniProt P28482: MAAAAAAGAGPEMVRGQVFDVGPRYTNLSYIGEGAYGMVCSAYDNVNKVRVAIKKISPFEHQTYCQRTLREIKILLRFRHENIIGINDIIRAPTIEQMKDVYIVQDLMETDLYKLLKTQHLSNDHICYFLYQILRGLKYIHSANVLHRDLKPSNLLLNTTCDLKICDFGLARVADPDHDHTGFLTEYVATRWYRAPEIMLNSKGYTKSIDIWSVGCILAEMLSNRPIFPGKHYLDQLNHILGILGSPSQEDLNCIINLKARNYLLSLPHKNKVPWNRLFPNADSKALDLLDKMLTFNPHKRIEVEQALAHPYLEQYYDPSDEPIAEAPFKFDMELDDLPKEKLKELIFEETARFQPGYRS

Target: NRF1^3xFLAG (FLAG-tagged NRF1; NF-E2-related factor 1, NFE2L1) (human) (UniProt Q14494)
Assay: co-IP

binding: binds
Substance: ERK2 (42 kDa form of ERK1/2) (from UniProt P28482 1-360) (enzyme)
